This is one part of the list. Further columns of the screen follow, without active or inactive calls. Most of these compounds were active or inconclusive in the main read-out, so they are no random draw. The note in brackets gives the kind of curve behind each potency; many fits are weak.
Assay: qHTS Assay for Modulators of Lamin A Splicing
Conditions: HeLa LMNA splicing GFP/RFP minigene ratio, 48 h
Method in brief: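 S3 HeLa cells stably expressing lamin A-EGFP splicing minigene plus DsRed2, 600 cells/well, 48 h compound exposure at 37C. Laser-scanning cytometry; analysed as GFP (500-530 nm)/RFP (575-640 nm) total intensity ratio; 0.5% DMSO vehicle.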

[1] = measured here: GFP splicing reporter channel
[2] = measured here: RFP viability control channel

## CC(C)[C@H](NC(=O)OC(C)(C)C)c1nnc(S(=O)(=O)Cc2c(F)cccc2Cl)o1
[1]
  AC50: 25.1 µM [falling, single point]
[2]
  AC50: 14.1 µM [rising, single point]

## Cc1sc(N)nc1C12CC3CC(CC(C3)C1)C2
[1]
  AC50: 1.78 µM [rising, partial curve, poor fit]

## Nc1c(C(O)(C(F)(F)F)C(F)(F)F)cc(C(O)(C(F)(F)F)C(F)(F)F)c2ccccc12
[2]
  AC50: 12.6 µM [rising, partial curve]

## CC(C)CNC(=O)c1cccc(NC(=O)COc2ccc([N+](=O)[O-])cc2)c1
[2]
  AC50: 1.78 µM [falling, partial curve, poor fit]

## CC(=O)OCCNc1cc(Sc2nc3ccccc3[nH]2)c2nonc2c1[N+](=O)[O-]
[1]
  AC50: 31.6 µM [falling, single point]
[2]
  AC50: 35.5 µM [rising, single point]

## COc1ccc(Br)cc1CSC(=N)N
[1]
  AC50: 0.0141 µM [falling, full curve, poor fit]

## CCOC(=O)N1CCN(C(=S)NC(=O)c2ccnn2C)CC1
[2]
  AC50: 15.8 µM [falling, partial curve]

## COc1cc(CC(=O)Nc2cccc(C(F)(F)F)c2)cc(OC)c1OC
[2]
  AC50: 12.6 µM [rising, partial curve]

## CCCCCCCCNC(=O)c1cccnc1SCC(=O)Nc1ccccc1OC
[1]
  AC50: 22.4 µM [rising, single point]

## CCCC(=O)Nc1nc2ccc(NC(=O)c3cccnc3)cc2s1
[2]
  AC50: 0.224 µM [falling, full curve, poor fit]

## CCOC(=O)Nc1nn(-c2ccc(C)cc2)c(=O)c(C#N)c1C
[2]
  AC50: 0.282 µM [falling, full curve, poor fit]

## CCOc1ccc(CCNC(=O)C2CCCN(S(=O)(=O)c3c(C)n[nH]c3C)C2)cc1OCC (stereo not given)
[2]
  AC50: 35.5 µM [rising, single point]

## Cc1ccc(C)c(NC(=S)c2ccc3ccccc3n2)c1
[2]
  AC50: 11.2 µM [rising, partial curve]

## NCCCCN=C(N)N
[1]
  AC50: 0.00562 µM [rising, full curve, poor fit]

## O=C(NCC1CCCO1)c1csc(Nc2cccc3ccccc23)n1 (stereo not given)
[1]
  AC50: 0.631 µM [rising, partial curve]
[2]
  AC50: 2 µM [rising, single point]

## N#Cc1nc(Cc2cccc3ccccc23)oc1NCc1ccco1
[2]
  AC50: 22.4 µM [rising, partial curve]

## COc1ccc(NS(=O)(=O)c2cc(NC(=O)CNC(=O)c3ccc(C)s3)ccc2Cl)cc1
[1]
  AC50: 11.2 µM [rising, partial curve]
[2]
  AC50: 14.1 µM [rising, single point]

## COc1ccc(C2(O)CC3CCC(C2)N3c2cc(C)nc(-c3ccccc3)n2)cc1 (stereo not given)
[1]
  AC50: 11.2 µM [rising, partial curve]
[2]
  AC50: 15.8 µM [rising, partial curve]

## CC1CCN(CCOCCOc2ccc(Br)cc2Cl)CC1
[1]
  AC50: 11.2 µM [rising, partial curve]
[2]
  AC50: 11.2 µM [rising, partial curve]

## O=C(Nc1cccc(Cl)c1)c1ccc(Cn2cc(Cl)cn2)cc1
[2]
  AC50: 20 µM [rising, single point]

## COc1ccc(CN(C(=O)Cc2c[nH]c3ccccc23)C(C(=O)NC2CCCCC2)c2ccc(C)o2)cc1 (stereo not given)
[2]
  AC50: 12.6 µM [rising, partial curve]

## CC(C)NC(=S)Nc1cccc2cnccc12
[1]
  AC50: 7.94 µM [rising, partial curve]
[2]
  AC50: 10 µM [rising, partial curve, poor fit]

## CCOC(=O)c1sc(NC(=O)c2cc3nc(-c4ccc(Br)cc4)cc(C(F)(F)F)n3n2)c(C(=O)OCC)c1C
[2]
  AC50: 2.24 µM [falling, partial curve]

## Cc1ccc(C(C(=O)Nc2ccc3c(c2)OCO3)N(C)C(=O)/C=C\c2ccc3c(c2)OCO3)cc1 (stereo not given)
[1]
  AC50: 10 µM [rising, partial curve]
[2]
  AC50: 11.2 µM [rising, partial curve]

## Cn1nc(CC(=O)Nc2ccc3c(c2)CCC3)c2ccccc2c1=O
[2]
  AC50: 0.631 µM [rising, full curve]

## c1ccc2c(-n3ccnc3)nc(-c3ccoc3)nc2c1
[1]
  AC50: 3.98 µM [falling, full curve]
[2]
  AC50: 4.47 µM [falling, full curve]

## Cn1c(-n2c(-c3ccco3)nc3ccccc3c2=O)nc2ccccc21
[2]
  AC50: 17.8 µM [rising, single point]

## Cc1nc2ccc(S(=O)(=O)NCC(=O)N3CCCC(C)C3)cc2s1 (stereo not given)
[1]
  AC50: 10 µM [rising, partial curve, poor fit]
[2]
  AC50: 12.6 µM [rising, single point]

## CCCCn1c(NC(C)=O)c(C#N)c2nc3ccccc3nc21
[1]
  AC50: 3.55 µM [rising, partial curve, poor fit]

## CCOC(=O)c1nn(-c2ccc(F)cc2)cc1O
[2]
  AC50: 0.00501 µM [falling, full curve, poor fit]

## CCN1C(=O)S/C(=C/c2c(OCc3ccc(C(=O)O)cc3)ccc3ccccc23)C1=O
[2]
  AC50: 14.1 µM [rising, single point]

## CC1(C)S[C@@H]2[C@H](NC(=O)[C@@H](NC(=O)N3CCNC3=O)c3ccccc3)C(=O)N2[C@H]1C(=O)O
[1]
  AC50: 0.000355 µM [rising, full curve, poor fit]
[2]
  AC50: 0.0631 µM [rising, full curve, poor fit]

## CCNC(=O)/C(=C\C=C\c1ccccc1)NC(=O)c1ccc(Br)o1
[1]
  AC50: 35.5 µM [rising, single point]
[2]
  AC50: 35.5 µM [rising, single point]

## Cc1ccc(-c2cc(C(=O)OC3CCOC3=O)c3ccccc3n2)c(C)c1 (stereo not given)
[2]
  AC50: 1.26 µM [falling, full curve, poor fit]

## CCN1CCN(CCNC(=O)c2ccc(/C=C3/Sc4ccccc4N(Cc4cccc(Cl)c4)C3=O)cc2)CC1
[2]
  AC50: 35.5 µM [falling, single point]

## N#Cc1nc(-c2ccco2)oc1N1CCN(c2cccc(Cl)c2)CC1
[2]
  AC50: 14.1 µM [rising, single point]

## Cn1nnnc1Sc1c(Cl)cccc1[N+](=O)[O-]
[2]
  AC50: 12.6 µM [rising, partial curve]

## Cc1cccc(CNc2nc(-c3ccoc3)nc3ccccc23)c1
[1]
  AC50: 12.6 µM [rising, single point]
[2]
  AC50: 31.6 µM [rising, single point]

## CCOc1ccc(-n2nnc3c(=O)n(CC(=O)N4CCCc5ccccc54)cnc32)cc1
[2]
  AC50: 12.6 µM [rising, single point]

## COc1cccc2[nH]c3c(N4CCC(C)CC4)ncnc3c12
[1]
  AC50: 3.55 µM [rising, partial curve, poor fit]
[2]
  AC50: 12.6 µM [rising, single point]

## CC1=CCC2C(=O)N(c3ccccc3OC(=O)c3ccccc3F)C(=O)C2C1 (stereo not given)
[1]
  AC50: 6.31 µM [rising, full curve, poor fit]
[2]
  AC50: 0.562 µM [rising, full curve, poor fit]

## CCn1c(SCC(=O)Nc2cc(F)ccc2C)nnc1-c1ccccc1O
[2]
  AC50: 35.5 µM [rising, single point]

## C[n+]1ccccc1/C=N\O
[1]
  AC50: 0.398 µM [falling, full curve, poor fit]

## CC(Oc1ccc(Cl)cc1Cl)c1nc(-c2ccc(NC(=O)c3ccncc3)cc2)no1 (stereo not given)
[1]
  AC50: 4.47 µM [rising, single point]
[2]
  AC50: 31.6 µM [rising, partial curve]

## COc1ccccc1CNC(=O)c1oc2c(c1C)-c1nn(Cc3ccc(Cl)cc3)cc1CC2
[2]
  AC50: 31.6 µM [rising, single point]

## CCc1cccc(NC(=O)c2ccc(NS(=O)(=O)c3c(C)noc3C)cc2)c1
[1]
  AC50: 35.5 µM [rising, single point]
[2]
  AC50: 31.6 µM [rising, single point]

## CC(C)N(Cc1nc(COc2ccccc2)no1)Cc1nccn1C
[1]
  AC50: 0.0224 µM [rising, full curve, poor fit]
[2]
  AC50: 0.0224 µM [rising, full curve, poor fit]

## Cc1ccc(SCCC(=O)N/N=C/c2cccnc2)cc1
[2]
  AC50: 1.12 µM [falling, full curve, poor fit]

## Cc1c(C(=O)Nc2ccncc2)oc2ccccc12
[2]
  AC50: 14.1 µM [rising, partial curve, poor fit]

## O=C(CCl)Nc1ccc(Oc2cnc3ccccc3n2)cc1
[2]
  AC50: 22.4 µM [falling, single point]

## Cc1ccccc1N1CCN(Cc2c(C#N)c3ccccc3n2C)CC1
[2]
  AC50: 35.5 µM [rising, single point]

## COc1ccc(O[C@H]2C=C[C@@H](c3ccccc3)O[C@@H]2COC(=O)CC/C(C)=N/OC[C@@H](O)COCc2ccco2)cc1
[2]
  AC50: 31.6 µM [rising, single point]

## O=C(NCC1CCCO1)C(c1ccc(F)cc1)N(CCCN1CCOCC1)C(=O)c1ccc(-c2ccccc2)[nH]1 (stereo not given)
[1]
  AC50: 35.5 µM [falling, partial curve]
[2]
  AC50: 35.5 µM [falling, partial curve, poor fit]

## O=c1c2cc3c(nc2ncn1Cc1ccccc1F)CCCC3
[1]
  AC50: 3.16 µM [falling, partial curve, poor fit]
[2]
  AC50: 15.8 µM [rising, single point]

## Cc1[nH]c2ccccc2c1/C=C/c1nc2ccccc2c(=O)n1CCO
[2]
  AC50: 35.5 µM [falling, single point]

— PubChem BioAssay AID1487 (National Center for Advancing Translational Sciences (NCATS), 2009)
